Source: patent US6544753B1 (priority 1996, dated 2003)
At least one peptide structure holds a part that was inferred or is arguable (an end, a ring closure or a residue). Where no end group is shown, it is not given here.

Target: T1, human GALR2 (Homo sapiens, UniProt O43603)
T1 sequence (O43603 1-387): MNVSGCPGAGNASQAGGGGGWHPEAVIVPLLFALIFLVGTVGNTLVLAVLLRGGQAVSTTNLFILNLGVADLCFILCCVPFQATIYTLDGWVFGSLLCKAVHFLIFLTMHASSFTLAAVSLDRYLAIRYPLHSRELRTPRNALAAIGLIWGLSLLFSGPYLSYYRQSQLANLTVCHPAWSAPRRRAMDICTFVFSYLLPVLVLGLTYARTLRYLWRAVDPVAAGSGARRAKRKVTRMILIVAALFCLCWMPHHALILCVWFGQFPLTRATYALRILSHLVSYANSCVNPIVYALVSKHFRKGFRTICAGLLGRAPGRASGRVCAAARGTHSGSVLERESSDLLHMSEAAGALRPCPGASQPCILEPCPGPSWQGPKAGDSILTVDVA
Test: Aequorin bioluminescence assay in 293-AEQ17 cells

GWTLNSAGYLLGPPPALALA-NH2 (C-terminus assumed) [M40]
agonist/antagonist character on the GALR2 receptor: partial agonists
